PubChem BioAssay AID1224828 | NIAID, 2016
Here is one part, drawn at random, of about 17,000 reagents tested. 762 of all reagents (4.5%) count as active. 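Active calls include both raised and lowered p65 entry, mostly lowered; wells with fewer than 50 cells lack a z-score.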 Raw values are not corrected between plates. No sequences are given here.

- Purpose: 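Knock-downs that increase or decrease LPS-induced p65 nuclear translocation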 (primary screen)
- System: mouse RAW264.7 G9 macrophage reporter cells (GFP-p65, Tnf promoter-mCherry)
- Reagents: siRNA pool against mouse genes, 100 nM
- Timing: 2 days siRNA transfection, then 40 min LPS before fixation
- Conditions: LPS (Salmonella minnesota R595) at 10 ng/ml
- Measured: 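Imaged p65 nuclear translocation ratio, normalised to the plate median, converted to robust z-scores and averaged across two replicates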
- Direction: p65 translocation robust z-score: higher = more nuclear NF-kappaB p65 after LPS than the plate median; nuclear/cytoplasmic p65 ratio: higher = more nuclear NF-kappaB p65
- Rule for the call: 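Active if robust z is above 3.3 (negative regulators) or below -1.56, the Tlr4 control median (positive regulators); activity score 50 or more; control wells not called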
- Meaning of the calls: active = hit (p65 shift raised or lowered); inactive = no clear change

What is on record for Fcgr2b (GeneID 14130)?
p65 translocation robust z-score: -0.96; nuclear/cytoplasmic p65 ratio, rep 1: 1.33; nuclear/cytoplasmic p65 ratio, rep 2: 1.25; low cell count flag: enough cells to score; outcome: inactive

How did the screen score C8a (GeneID 230558)?
p65 translocation robust z-score: -0.13; nuclear/cytoplasmic p65 ratio, rep 1: 1.56; nuclear/cytoplasmic p65 ratio, rep 2: 1.62; low cell count flag: enough cells to score; outcome: inactive

How did the screen score Wscd1 (GeneID 216881)?
p65 translocation robust z-score: -0.43; nuclear/cytoplasmic p65 ratio, rep 1: 1.42; nuclear/cytoplasmic p65 ratio, rep 2: 1.88; low cell count flag: enough cells to score; outcome: inactive

What did the screen give for Phf11a (GeneID 219131)?
p65 translocation robust z-score: -0.72; nuclear/cytoplasmic p65 ratio, rep 1: 1.31; nuclear/cytoplasmic p65 ratio, rep 2: 1.19; low cell count flag: enough cells to score; outcome: inactive

With Dennd5a (GeneID 19347), how do the results read?
p65 translocation robust z-score: -1.31; nuclear/cytoplasmic p65 ratio, rep 1: 1.19; nuclear/cytoplasmic p65 ratio, rep 2: 1.09; low cell count flag: enough cells to score; outcome: inactive

With Cyp2g1 (GeneID 13108), what was measured?
p65 translocation robust z-score: -0.84; nuclear/cytoplasmic p65 ratio, rep 1: 1.44; nuclear/cytoplasmic p65 ratio, rep 2: 1.66; low cell count flag: enough cells to score; outcome: inactive

What did the screen give for Arl14ep (GeneID 212772)?
p65 translocation robust z-score: -1.4; nuclear/cytoplasmic p65 ratio, rep 1: 1.27; nuclear/cytoplasmic p65 ratio, rep 2: 1.22; low cell count flag: enough cells to score; outcome: inactive

With Psmd4 (GeneID 19185), what was measured?
p65 translocation robust z-score: -0.65; nuclear/cytoplasmic p65 ratio, rep 1: 1.41; nuclear/cytoplasmic p65 ratio, rep 2: 1.32; low cell count flag: enough cells to score; outcome: inactive

With Gfm2 (GeneID 320806), what was measured?
p65 translocation robust z-score: -0.04; nuclear/cytoplasmic p65 ratio, rep 1: 1.45; nuclear/cytoplasmic p65 ratio, rep 2: 1.44; low cell count flag: enough cells to score; outcome: inactive

Which result is listed for Cdhr1 (GeneID 170677)?
p65 translocation robust z-score: -1.43; nuclear/cytoplasmic p65 ratio, rep 1: 1.2; nuclear/cytoplasmic p65 ratio, rep 2: 1.12; low cell count flag: enough cells to score; outcome: inactive

With Pard6b (GeneID 58220), what does the deposit list?
p65 translocation robust z-score: -0.75; nuclear/cytoplasmic p65 ratio, rep 1: 1.36; nuclear/cytoplasmic p65 ratio, rep 2: 1.16; low cell count flag: enough cells to score; outcome: inactive

For Kcnk5 (GeneID 16529), how do the results read?
p65 translocation robust z-score: -0.73; nuclear/cytoplasmic p65 ratio, rep 1: 1.53; nuclear/cytoplasmic p65 ratio, rep 2: 1.26; low cell count flag: enough cells to score; outcome: inactive

Limited to “low cell count flag” (2 entries from above):
Wscd1 (GeneID 216881): enough cells to score
Phf11a (GeneID 219131): enough cells to score
